Data reported in US8481032B2, “Lipocalin-2 antibodies for methods of treatment” (The University of Hong Kong, priority 2006, dated 2013).

System: C57 mice
Test: Chronic treatment of C57 mice with recombinant lipocalin-2: body weight, food intake, metabolic parameters, ipGTT and ITT
Type: in vivo, mouse
Settings: recombinant lipocalin-2 5 mg/kg i.p. twice a day, n = 5
Description: Fasting (16 hr) plasma glucose levels and triglyceride (TG) concentrations were measured by using a Glucose (GO) assay kit (Sigma) and Triglyceride GPO reagent (Pointe Scientific Inc., Lincoln Park, Mich., USA) respectively. Fasting serum insulin concentrations were quantified by using the commercial ELISA kits from Mercodia AB (Uppsala, Sweden). Serum total cholesterol and free fatty acids (FFAs) were analyzed by using the kits from Wako (Richmond, Va., USA) and Roche Diagnostics respectively. TG contents in liver and soleus muscle were analyzed as described elsewhere (Ellis, B. A et al., Am J Physiol Endocrinol Metab. 279:E554-560 (2000); Xu, A., et al. J Clin Invest 112:91-100 (2003)).
For ipGTT, overnight fasted mice (16 hr) were given a glucose load by intraperitoneal injection (1 g glucose/kg body weight). For ITT, mice were starved for 6 h, and then intraperitonally injected with insulin (1 U/kg body weight). Plasma glucose levels were measured at different time points as indicated.
To evaluate the effect of lipocalin-2 on glucose homeostasis and insulin sensitivity, normal C57 mice were treated with murine lipocalin-2 by intraperitoneal injection of the recombinant protein (5 mg protein/kg body weight, twice a day at 12 hr intervals).

B1: Lipocalin-2: recombinant murine lipocalin-2 expressed in BL21 cells, His6 tag and endotoxin removed (protein)
chain: QDSTQNLIPAPSLLTVPLQPDFRSDQFRGRWYVVGLAGNAVQKKTEGSFTMYSTIYELQENNSYNVTSILVRDQDQGCRYWIRTFVPSSRAGQFTLGNMHRYPQVQSYNVQVATTDYNQFAMVFFRKTSENKQYFKITLYGRTKELSPELKERFTRFAKSLGLKDDNIIFSVPTDQCIDN
modifications: left off: small tags and cut ends
notes: recombinant murine lipocalin-2 expressed in BL21 cells, His6 tag and endotoxin removed
4 weeks
  Daily average food intake: 1.75 ± 0.20 g
  Body weight gains over 4 weeks: 2.63 ± 0.19 g
